At least one compound was matched to its structure with a doubt left.
Legend:
[1] = system: latently HIV infected CD4 T cells; assay: Ex vivo HIV reactivation (αCD3/αCD28) in CD4 T cells from suppressed HIV-infected patients; format: cell-based, human
Protocol: FIGS. 10A-10E. Selective Bcl-2 inhibition reduces HIV DNA associated with cells after viral reactivation ex vivo. […] After 72 hours, cell associated HIV DNA was measured. FIG. 10B, Freshly obtained peripheral CD4 T cells from an additional 16 suppressed HIV-infected patients were treated with ABT-199 or DMSO followed by αCD3/αCD28 for 72 hours before cell associated HIV DNA was measured. Depicted is the ratio of HIV DNA in ABT-199 treated vs. diluent treated samples for each patient with measurable HIV DNA in the diluent sample (n=11). FIG. 10C, Primary CD4 T cells from HIV-infected subjects were treated with ABT-199 or diluent and assayed for intracellular Casp8p41 and active caspase 3 in the TCM subset. Representative data of three independent subjects. FIG. 10D, Primary CD4 T cells from four HIV-infected subjects were treated with venetoclax or diluent and induced to reactivate HIV using CD3/CD28, and cell death measured in HIV P24 positive or negative cells using activated caspase 3 staining. FIG. 10E, HIV RNA was measured in cell culture supernatant from 6 of the 11 patient experiments from FIG. 10B.
Jurkat and Jurkat/Bcl-2 cells were infected overnight, while primary PHA-activated CD4 T cells were infected for 6 hours with HIV-1IIIb (NIH AIDS Reagent Program). Aliquots of the same infectious supernatant were used for all experiments. Cells were then washed three times and incubated in fresh medium. At the indicated time points, HIV-1 p24 in the cell culture supernatant was measured by RETROTEK™ ELISA kits (Zeptometrix Corporation) according to manufacturer's protocol. […] Briefly, total DNA was extracted using the Qiagen DNeasy Blood and Tissue kit (Hilden, Germany) and analyzed by a real-time polymerase chain reaction (PCR) assay specific for HIV-LTR and β-globin. […] Total HIV-1 DNA was compared and normalized with genomic DNA, determined by β-globin. HIV-1 proviral DNA levels were expressed as HIV-1 copies/β-globin genomic equivalent of 10^6 cells.

HIV LTR = assay: HIV LTR-luciferase reporter in primary CD4 T cells; format: cell-based; conditions: basal and prostratin (1 μM) stimulated

Compound: CC1(C)CCC(CN2CCN(c3ccc(C(=O)NS(=O)(=O)c4ccc(NCC5CCOCC5)c([N+](=O)[O-])c4)c(Oc4cnc5[nH]ccc5c4)c3)CC2)=C(c2ccc(Cl)cc2)C1 [venetoclax]
- proportion of Casp8p41 positive TCM cells containing active caspase 3 ([1]; TCM subset): increased
- cell associated HIV DNA after reactivation ([1]; cryopreserved CD4 T cells, N=4, αCD3/αCD28, tenofovir and raltegravir, 72 hours): reduced cell associated HIV DNA in a dose dependent manner
- HIV RNA in the cell culture supernatant compared to control ([1]; αCD3/αCD28 reactivated): not altered
- HIV LTR transcription (luciferase) (HIV LTR): inhibits both basal and prostratin-induced HIV transcription

Source: patent US11938098B2, “Method for killing HIV-infected cells using Bcl-2 inhibitors” (Mayo Foundation for Medical Education and Research, priority 2015, dated 2024)
